These are yes or no findings as the source states them, for the method shown. Some results given as binding are weak or reduced against the parent protein; the word gives no strength. Where a sequence is shown, tags or fusion partners need not be part of it.

The experiment addresses T1, FLAG-tagged full-length human TSC1 (human), Q92574.
T1 chain: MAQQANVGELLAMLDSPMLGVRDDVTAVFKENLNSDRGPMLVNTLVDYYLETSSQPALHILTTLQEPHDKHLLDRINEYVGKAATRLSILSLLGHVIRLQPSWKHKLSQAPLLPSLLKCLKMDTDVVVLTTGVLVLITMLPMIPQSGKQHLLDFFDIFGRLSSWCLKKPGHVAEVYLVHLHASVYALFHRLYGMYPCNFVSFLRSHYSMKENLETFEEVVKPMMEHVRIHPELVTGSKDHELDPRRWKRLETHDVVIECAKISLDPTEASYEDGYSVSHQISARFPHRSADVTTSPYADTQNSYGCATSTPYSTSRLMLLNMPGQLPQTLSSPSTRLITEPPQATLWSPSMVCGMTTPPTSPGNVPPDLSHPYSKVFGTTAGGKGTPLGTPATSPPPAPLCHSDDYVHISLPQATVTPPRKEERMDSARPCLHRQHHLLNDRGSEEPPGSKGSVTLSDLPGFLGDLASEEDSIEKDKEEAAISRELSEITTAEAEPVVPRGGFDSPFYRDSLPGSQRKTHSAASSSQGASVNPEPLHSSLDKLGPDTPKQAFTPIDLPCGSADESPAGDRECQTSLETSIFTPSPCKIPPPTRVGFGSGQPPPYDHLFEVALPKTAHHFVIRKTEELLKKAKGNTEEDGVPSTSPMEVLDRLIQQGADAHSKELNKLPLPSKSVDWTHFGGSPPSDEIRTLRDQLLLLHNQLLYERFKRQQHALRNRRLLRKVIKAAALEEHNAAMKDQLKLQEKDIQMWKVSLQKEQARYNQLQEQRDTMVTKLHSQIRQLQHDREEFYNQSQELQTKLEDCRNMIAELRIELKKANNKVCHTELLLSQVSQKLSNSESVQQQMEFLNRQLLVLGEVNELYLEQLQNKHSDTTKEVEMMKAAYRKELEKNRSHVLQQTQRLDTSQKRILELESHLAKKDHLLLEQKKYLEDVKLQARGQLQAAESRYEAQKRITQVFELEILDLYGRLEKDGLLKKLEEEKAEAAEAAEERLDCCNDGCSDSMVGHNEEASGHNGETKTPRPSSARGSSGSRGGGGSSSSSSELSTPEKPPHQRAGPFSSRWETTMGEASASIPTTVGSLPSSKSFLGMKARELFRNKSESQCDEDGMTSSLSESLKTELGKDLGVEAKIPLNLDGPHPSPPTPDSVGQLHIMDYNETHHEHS
Put plainly: cryo-EM structure; single-particle cryo-EM of purified TSCCFL at 0.1-0.2 mg/mL on graphene oxide; 25 mM K-HEPES pH 7.6, 175 mM KCl or 150 mM LiCl, 1 mM TCEP; body 4.6 Å, pincer 8.1 Å, tail 8.2 Å; both purified. The settings on record: remark: other sources report otherwise.

B1: FLAG-tagged full-length human TSC1, Q92574-1 1-1164 (protein)
chain: T1 chain
Regarding B1, the binding entry was “binds”.

(Values after paper PMC7840889.)
